The record followed here is article PMC3916320.

Chains of the proteins cited; added tags and fusions are not shown.
UniProt Q9Z0J4: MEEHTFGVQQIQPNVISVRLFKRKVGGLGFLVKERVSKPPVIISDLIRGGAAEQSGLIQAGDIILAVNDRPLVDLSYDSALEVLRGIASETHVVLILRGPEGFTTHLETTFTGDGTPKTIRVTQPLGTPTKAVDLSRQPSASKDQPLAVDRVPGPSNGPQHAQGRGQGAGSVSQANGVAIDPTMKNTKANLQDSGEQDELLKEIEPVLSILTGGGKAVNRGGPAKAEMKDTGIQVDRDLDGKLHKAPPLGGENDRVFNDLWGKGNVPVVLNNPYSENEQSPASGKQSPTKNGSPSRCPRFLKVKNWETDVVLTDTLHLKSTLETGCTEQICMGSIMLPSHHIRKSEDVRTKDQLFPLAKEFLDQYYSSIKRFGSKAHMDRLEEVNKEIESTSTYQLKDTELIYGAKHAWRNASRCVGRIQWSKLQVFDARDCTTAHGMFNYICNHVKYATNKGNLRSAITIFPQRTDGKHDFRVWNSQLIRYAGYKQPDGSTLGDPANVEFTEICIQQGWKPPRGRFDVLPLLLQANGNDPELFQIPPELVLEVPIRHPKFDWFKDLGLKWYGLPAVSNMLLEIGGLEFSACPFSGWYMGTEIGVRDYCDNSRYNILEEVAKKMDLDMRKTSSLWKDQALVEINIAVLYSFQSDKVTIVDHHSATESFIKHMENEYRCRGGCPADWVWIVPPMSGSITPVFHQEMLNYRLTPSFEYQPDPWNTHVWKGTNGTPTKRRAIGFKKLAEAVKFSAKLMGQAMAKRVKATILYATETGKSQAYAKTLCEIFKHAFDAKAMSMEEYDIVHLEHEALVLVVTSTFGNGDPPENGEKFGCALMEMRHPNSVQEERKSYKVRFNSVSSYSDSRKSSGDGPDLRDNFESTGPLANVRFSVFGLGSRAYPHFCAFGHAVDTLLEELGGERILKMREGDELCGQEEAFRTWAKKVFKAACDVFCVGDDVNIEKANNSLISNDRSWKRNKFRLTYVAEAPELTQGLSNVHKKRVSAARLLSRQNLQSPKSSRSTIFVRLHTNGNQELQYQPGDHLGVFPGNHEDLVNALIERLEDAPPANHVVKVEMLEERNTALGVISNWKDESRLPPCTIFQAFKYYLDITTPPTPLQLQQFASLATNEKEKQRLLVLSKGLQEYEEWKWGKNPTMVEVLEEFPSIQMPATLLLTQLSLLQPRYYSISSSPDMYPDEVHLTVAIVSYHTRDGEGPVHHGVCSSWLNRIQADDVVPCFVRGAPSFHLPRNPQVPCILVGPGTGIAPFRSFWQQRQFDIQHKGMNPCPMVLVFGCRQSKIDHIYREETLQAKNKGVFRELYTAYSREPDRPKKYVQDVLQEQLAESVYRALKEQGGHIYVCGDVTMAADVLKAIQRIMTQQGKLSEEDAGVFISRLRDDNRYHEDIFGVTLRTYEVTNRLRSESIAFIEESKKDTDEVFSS
UniProt Q99104: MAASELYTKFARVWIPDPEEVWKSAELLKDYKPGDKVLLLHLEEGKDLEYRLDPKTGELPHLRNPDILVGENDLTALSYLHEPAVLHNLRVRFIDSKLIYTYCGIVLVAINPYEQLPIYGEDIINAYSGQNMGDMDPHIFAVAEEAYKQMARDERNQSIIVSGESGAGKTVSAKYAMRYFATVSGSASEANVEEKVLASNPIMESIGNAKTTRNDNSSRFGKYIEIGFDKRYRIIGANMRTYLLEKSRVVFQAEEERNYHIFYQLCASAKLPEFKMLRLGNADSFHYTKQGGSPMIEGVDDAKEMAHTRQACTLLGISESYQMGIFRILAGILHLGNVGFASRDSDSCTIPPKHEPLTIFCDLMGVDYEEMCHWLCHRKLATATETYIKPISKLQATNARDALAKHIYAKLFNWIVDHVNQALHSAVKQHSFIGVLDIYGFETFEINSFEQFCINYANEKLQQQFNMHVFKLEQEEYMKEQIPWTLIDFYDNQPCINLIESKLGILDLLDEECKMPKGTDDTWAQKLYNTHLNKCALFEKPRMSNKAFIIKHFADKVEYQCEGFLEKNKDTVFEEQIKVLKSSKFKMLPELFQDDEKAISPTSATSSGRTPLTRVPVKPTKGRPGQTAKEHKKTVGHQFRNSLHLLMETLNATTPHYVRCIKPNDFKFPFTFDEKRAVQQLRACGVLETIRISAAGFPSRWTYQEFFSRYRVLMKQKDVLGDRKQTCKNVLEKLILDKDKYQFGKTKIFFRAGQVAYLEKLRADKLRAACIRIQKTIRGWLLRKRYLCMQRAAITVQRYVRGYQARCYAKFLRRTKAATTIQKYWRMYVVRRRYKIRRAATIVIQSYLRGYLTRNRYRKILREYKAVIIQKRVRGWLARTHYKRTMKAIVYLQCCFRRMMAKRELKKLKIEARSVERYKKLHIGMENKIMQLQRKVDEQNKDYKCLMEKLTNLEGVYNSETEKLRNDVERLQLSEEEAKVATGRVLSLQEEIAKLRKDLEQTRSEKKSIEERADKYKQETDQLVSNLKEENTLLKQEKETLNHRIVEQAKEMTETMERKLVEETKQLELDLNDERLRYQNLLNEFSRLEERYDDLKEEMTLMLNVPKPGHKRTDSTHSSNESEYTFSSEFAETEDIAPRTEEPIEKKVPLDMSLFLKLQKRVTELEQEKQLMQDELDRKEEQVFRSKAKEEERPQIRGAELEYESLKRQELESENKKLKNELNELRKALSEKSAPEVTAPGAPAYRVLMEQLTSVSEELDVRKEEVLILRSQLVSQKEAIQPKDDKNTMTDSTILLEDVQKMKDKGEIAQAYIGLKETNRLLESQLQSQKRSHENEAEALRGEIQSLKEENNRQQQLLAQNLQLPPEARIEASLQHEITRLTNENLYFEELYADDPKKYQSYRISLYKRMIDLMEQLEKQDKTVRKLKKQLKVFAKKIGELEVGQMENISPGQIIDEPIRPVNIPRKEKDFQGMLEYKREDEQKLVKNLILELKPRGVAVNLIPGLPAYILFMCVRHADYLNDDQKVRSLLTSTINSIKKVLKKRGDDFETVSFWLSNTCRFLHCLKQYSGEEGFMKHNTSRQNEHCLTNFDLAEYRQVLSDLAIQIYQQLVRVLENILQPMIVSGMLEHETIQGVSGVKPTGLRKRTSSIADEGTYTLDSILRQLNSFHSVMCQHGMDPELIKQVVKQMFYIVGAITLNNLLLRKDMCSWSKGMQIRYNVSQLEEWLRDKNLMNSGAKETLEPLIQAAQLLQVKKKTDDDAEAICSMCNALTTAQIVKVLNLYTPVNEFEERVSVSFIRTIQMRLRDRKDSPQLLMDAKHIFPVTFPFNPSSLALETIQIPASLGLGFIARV

For the assay, the target named is neuronal nitric oxide synthase (nNOS) of gastric fundus (mouse (endogenous in C57BL/6J gastric fundus)) (UniProt Q9Z0J4). Nature of the assay: co-IP; anti-nNOS antibody covalently coupled to M-270 epoxy Dynabeads, incubated 1 hour at 4°C with tissue lysates of WT mouse fundus (1.7 mg/ml) or CCP (3.4 mg/ml); IP extraction buffer with 100 mM NaCl, 2 mM MgCl2, 1 mM DTT, protease inhibitors; eluate blotted for myosin Va.

No constants are given. Whether binding was seen depends on the method and setting. Binding seen in cells or lysates may run through a third protein. Some entries that bind do so weakly or less than the wild type.

Consider myosin Va (from UniProt Q99104 1-1853), for which the binding entry was “binds”.
